The record followed here is PMC7862563.

Test [1] addresses T1, RING finger protein 180 (RNF180) (human (endogenous in LOVO and RKO)) (UniProt Q86T96).
T1 sequence: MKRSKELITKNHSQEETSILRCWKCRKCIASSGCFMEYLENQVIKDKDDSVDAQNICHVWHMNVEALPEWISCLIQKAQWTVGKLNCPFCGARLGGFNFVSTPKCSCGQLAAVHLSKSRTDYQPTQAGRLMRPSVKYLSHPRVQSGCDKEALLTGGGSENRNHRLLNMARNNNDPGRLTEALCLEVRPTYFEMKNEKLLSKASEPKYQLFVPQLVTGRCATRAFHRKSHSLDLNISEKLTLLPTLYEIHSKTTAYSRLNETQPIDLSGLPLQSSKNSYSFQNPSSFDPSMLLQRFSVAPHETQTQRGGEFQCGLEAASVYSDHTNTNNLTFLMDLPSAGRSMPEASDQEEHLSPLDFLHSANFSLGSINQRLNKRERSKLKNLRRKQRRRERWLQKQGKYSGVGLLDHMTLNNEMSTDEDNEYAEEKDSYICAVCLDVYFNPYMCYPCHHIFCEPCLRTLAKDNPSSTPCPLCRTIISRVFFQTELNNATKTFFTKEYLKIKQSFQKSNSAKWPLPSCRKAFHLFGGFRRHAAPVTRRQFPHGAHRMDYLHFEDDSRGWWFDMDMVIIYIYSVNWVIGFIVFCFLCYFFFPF
As to the kind of experiment: co-IP; LOVO and RKO cell lysates (RIPA buffer) with anti-RNF180, anti-WISP1 or normal IgG at 4°C overnight, Protein A/G PLUS-Agarose beads; immunoblot with anti-RNF180 and anti-WISP1. Background: In western blotting, separated proteins are transferred to a membrane and probed.

In test [2] the target is T2, WNT1 inducible signaling pathway protein 1 (WISP1) (human (endogenous in LOVO and RKO)) (UniProt O95388).
T2 sequence: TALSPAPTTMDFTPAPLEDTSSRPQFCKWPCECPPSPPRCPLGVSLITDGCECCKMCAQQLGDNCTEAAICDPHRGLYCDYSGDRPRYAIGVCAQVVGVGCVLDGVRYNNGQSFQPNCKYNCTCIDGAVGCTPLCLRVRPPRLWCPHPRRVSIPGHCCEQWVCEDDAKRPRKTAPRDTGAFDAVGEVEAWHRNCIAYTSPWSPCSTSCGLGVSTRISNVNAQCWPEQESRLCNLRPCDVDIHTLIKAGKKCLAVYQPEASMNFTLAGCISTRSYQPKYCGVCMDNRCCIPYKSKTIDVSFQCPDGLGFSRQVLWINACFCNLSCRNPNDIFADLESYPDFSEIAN
The test is described as above.

These are yes or no findings as the source states them, for the method shown. In cells and extracts the contact can be indirect. Some entries that bind do so weakly or less than the wild type.

B1: WNT1 inducible signaling pathway protein 1 (WISP1) (protein, UniProt O95388 23-367)
chain: T2 sequence
For B1, the binding result in test [1] is given as “binds”.

B2: RING finger protein 180 (RNF180) (enzyme, UniProt Q86T96 1-592)
chain: T1 sequence
Take B2: the binding result in test [2] is given as “binds”.
